Data published in PubChem BioAssay AID1688 (National Center for Advancing Translational Sciences (NCATS), 2009).
Out of some 220,000 compounds screened, about 2,400 (1.1%) were called active. The shares of active, inactive and inconclusive entries below differ from those in the screen. Calls come from the whole dose curve; as a rule, active = well fitted inhibition curve with a large enough effect; inconclusive = small, poorly fitted or top-dose-only effect, or effect the other way; inactive = no such curve, though single readings can be large or run the other way. Where the call is inconclusive, the potency comes from a doubtful curve fit.

Experiment: qHTS Multiplex Assay to Identify Dual Action Probes in a Cell Model of Huntington: Aggregate Formation (GFP); note: nearly all actives have a fitted effect of over 60% in size
Settings: PC12 HttQ103-GFP aggregates, Acumen cytometry, 40 h; activity change, negative = inhibition: at 46.1 µM (top of the series) unless noted
Summary of the method: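 Aggregate formation scored by laser-scanning cytometer (488 excitation, 500–530 emission) in lysed PC12 cells expressing Q103-GFP after 100 nM tebufenozide induction; library tested in dose series, with ATPLite reagent added in the multiplex.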
% is set by controls: 0 for no effect and ±100 for the full control effect; potency is the fitted concentration of half-maximal effect.

Row | SMILES | Potency | activity change, negative = inhibition
1 | Clc1ccc(Oc2cnc3ccccc3n2)cc1 | inconclusive: 12.6 µM [inhibitor, single point] | –
2 | COc1cc2c(cc1OC)CN(c1nc(CN3CCOCC3)nc3sc4c(c13)CCCC4)CC2 | inconclusive: 15.8 µM [inhibitor, single point] | –
3 | Cc1cc(C)nc(/N=c2/ssnc2Cl)c1 | inconclusive: 22.4 µM [inhibitor, single point] | –
4 | CCC(=O)Nc1nonc1-c1nc2ccccc2n1CCC(C)C | inconclusive: 35.5 µM [inhibitor, single point] | –
5 | O=C(O)c1ccc2c3c(ncnc13)-c1ccccc1C2=O | inconclusive: 8.91 µM [inhibitor, partial curve] | –
6 | Clc1cccc(OCCN2CCOCC2)c1 | inactive | –
7 | O=C(O)c1ccc2c(c1)C(=O)N(CCC1=CCCCC1)C2=O | inactive | –
8 | O=[N+]([O-])c1ccc(O)c(/C=N/NC2=NS(=O)(=O)c3ccccc32)c1 | inconclusive: 12.6 µM [inhibitor, partial curve] | –
9 | Cn1c2c(c(=O)n(C)c1=O)C(C(F)(F)F)(C(F)(F)F)N=C(CCC1CCCCC1)N2 | inconclusive: 10 µM [inhibitor, single point] | –
10 | O=C(N/N=C/c1cn(-c2ccccc2)nc1-c1cccs1)c1ccccc1F | inconclusive: 22.4 µM [inhibitor, single point] | –
11 | Cc1ccc(S(=O)(=O)N(C(=O)c2ccco2)c2cc3sc(=O)oc3c3ccccc23)cc1 | inconclusive: 14.1 µM [activator, single point] | –
12 | O=C1CCCC(=NCc2ccco2)C1 | inactive | –
13 | COc1cc(NS(=O)(=O)c2ccc(NC(=S)NC(=O)c3cccs3)cc2)nc(OC)n1 | inactive | –
14 | Cn1cnnc1-c1cccc(NC(=O)c2cc(F)c(F)cc2Cl)c1 | inactive | –
15 | COc1ccccc1NC(=O)N(Cc1cccs1)Cc1cc2cc3c(cc2[nH]c1=O)OCO3 | inconclusive: 35.5 µM [inhibitor, single point] | –
16 | O=C(Cc1ccc(Br)cc1)Nc1ccc(Cl)cc1 | inconclusive: 11.2 µM [inhibitor, single point] | –
17 | CCOC(=O)C1CCN(c2ccc(C(N)=O)cc2[N+](=O)[O-])CC1 | inconclusive: 0.355 µM [activator, partial curve, poor fit] | –
18 | CCCCNC(=O)Nc1cc(C(=O)OC)ccc1Cl | inactive | –
19 | COc1cc([N+](=O)[O-])ccc1NC(=O)Nc1ccc2c(c1)OCCO2 | inconclusive: 22.4 µM [inhibitor, single point] | –
20 | CC1(C)Cc2c(sc3nc(-c4cccs4)n(N)c(=O)c23)CO1 | active: 10 µM | –
21 | COc1ccc(N2CCN(C(=O)CN(c3ccccc3)S(C)(=O)=O)CC2)cc1 | inactive | –
22 | CCn1c(C)nc2cc(-c3nnc(-c4c(-c5ccccc5)noc4C)o3)ccc21 | inconclusive: 25.1 µM [inhibitor, single point] | –
23 | CC12CN(Cc3ccccc3)CC(C)(CN(Cc3ccccc3)C1)C2=O | inactive | –
24 | Cc1nc(S/C(=C/c2ccc(-c3cc(Cl)ccc3C)o2)C(=O)O)n[nH]1 | – | inactive: 12.6% [at 9.22 µM]
25 | CCNC(=S)N1CCN(S(=O)(=O)c2cccc(C(F)(F)F)c2)CC1 | inactive | –

Part of the list above, as labelled records:
O=C(N/N=C/c1cn(-c2ccccc2)nc1-c1cccs1)c1ccccc1F
  Potency: inconclusive: 22.4 µM [inhibitor, single point]
Cc1ccc(S(=O)(=O)N(C(=O)c2ccco2)c2cc3sc(=O)oc3c3ccccc23)cc1
  Potency: inconclusive: 14.1 µM [activator, single point]
O=C1CCCC(=NCc2ccco2)C1
  Potency: inactive

(continued)

Row | SMILES | Potency | activity change, negative = inhibition
26 | O=C(CCl)NC1CCCc2ccccc21 (centres undefined) | – | inactive: -12.5% [at 9.22 µM]
27 | COc1ccc2nc(Nc3sc4c(c3C(N)=O)CCCC4)sc2c1 | inconclusive: 35.5 µM [inhibitor, single point] | –
28 | Cc1ccc(Nc2cc(C)nn2-c2nc(C)cc(=O)[nH]2)cc1 | inconclusive: 1.41 µM [inhibitor, full curve] | –
29 | COc1ccccc1/C=N/NC(=O)c1ccc(NC(=O)c2cccc([N+](=O)[O-])c2)cc1 | inconclusive: 0.794 µM [activator, full curve] | –
30 | CCOc1cc(/C=C2/NC(=O)N(Cc3ccccc3F)C2=O)ccc1O | inactive | –
31 | C=CCOC(=O)C1=C(C)NC2(O)c3ccccc3C(=O)C12O (centres undefined) | inactive | –
32 | COc1ccc(S(=O)(=O)N2c3ccccc3OCC2c2ccccc2)cc1 (centres undefined) | inactive | –
33 | O=C(COC(=O)c1ccc2c(c1)OCO2)Nc1nc(-c2ccccc2)cs1 | inconclusive: 0.562 µM [activator, full curve] | –
34 | COc1ccccc1N1CCN(c2nc(C)nc3c2oc2ccccc23)CC1 | – | inactive: -44% [at 9.22 µM]
35 | COc1ccc2o/c(=N\O)c(C(=O)Nc3ccc(C)cc3)cc2c1 | – | inactive: -1.66% [at 9.22 µM]
36 | Cc1ccc(NC(=O)CN(c2cc(C)cc(C)c2)S(=O)(=O)c2c(C)noc2C)nc1 | inconclusive: 3.98 µM [activator, single point] | –
37 | Cc1ccc(Cl)cc1N1CCN(Cc2nc3ccsc3c(=O)[nH]2)CC1 | inactive | –
38 | Cc1ccc2nc(Cl)c3cc(C(=O)N(CCN(C)C)Cc4ccco4)sc3c2c1 | inconclusive: 20 µM [inhibitor, single point] | –
39 | Cc1ccc(NC(=O)C(C)c2cccc(C(=O)c3ccccc3)c2)cc1O (centres undefined) | inconclusive: 14.1 µM [inhibitor, partial curve] | –
40 | CCOC(=O)Cn1nnnc1C(CC)N(Cc1cccs1)Cc1cc2ccc(OC)cc2[nH]c1=O (centres undefined) | inconclusive: 0.891 µM [activator, partial curve, poor fit] | –
41 | COc1ccc(CC(=O)NNc2ncnc3c2cnn3-c2ccc(C)cc2)cc1 | inconclusive: 2.82 µM [inhibitor, single point] | –
42 | O=C(c1cc(-c2cccnc2)nc2ccc(Br)cc12)N1CCN(c2ncccn2)CC1 | inactive | –
43 | CC(=O)Nc1ccc2c(c1)n(C)c(=O)n2C | inactive | –
44 | O=S(=O)(Nc1ccccc1)c1ccc(Oc2ncc(C(F)(F)F)cc2Cl)cc1 | inconclusive: 11.2 µM [inhibitor, partial curve] | –
45 | CC1(C)Cc2nc3oc4c(NCCCN5CCOCC5)ncnc4c3cc2CO1 | – | inactive: 0.597% [at 9.22 µM]
46 | Cc1cc(NC(=O)Cc2ccccc2)c2ccccc2n1 | inconclusive: 6.31 µM [inhibitor, partial curve] | –
47 | Cc1ccc(C)c(N2CCN(C(=O)CN(C)S(=O)(=O)c3ccc4c(c3)CCC(=O)N4)CC2)c1 | inconclusive: 14.1 µM [inhibitor, partial curve] | –
48 | CCOc1ccc2c(c1)[nH]c(=S)n2C | – | inactive: -15.7% [at 9.22 µM]
49 | COCc1cc(=O)[nH]c(Nc2nc(C)c3ccccc3n2)n1 | inactive | –
50 | Cc1[nH]n(-c2ccccc2)c(=O)c1/C=N/NC(=O)c1cccc([N+](=O)[O-])c1 | active: 5.62 µM | –

Row | SMILES | Potency | activity change, negative = inhibition
51 | O=C(Cn1c2ccccc2c(=O)c2ccccc21)Nc1ccccc1F | inconclusive: 6.31 µM [activator, single point] | –
52 | O=C(NCCn1cc(SCc2ccccc2)c2ccccc21)c1ccccc1F | inconclusive: 35.5 µM [inhibitor, single point] | –
53 | Fc1ccc(N2CCN(c3nc(CN4CCOCC4)nc4scc(-c5ccccc5)c34)CC2)cc1 | active: 17.8 µM | –
54 | Cc1ccc(N2C(=O)CS(=O)C(c3ccccc3)C2=O)cc1C (centres undefined) | inactive | –
55 | O=C(Nc1nc(-c2ccccn2)cs1)c1cc(Cl)ccc1[N+](=O)[O-] | inconclusive: 1.41 µM [inhibitor, full curve] | –
56 | COc1ccc(-n2cnc3cc(NS(=O)(=O)c4ccccc4)ccc32)cc1 | inconclusive: 17.8 µM [inhibitor, single point] | –
57 | CCOc1ccccc1C(=O)Nc1nnc(C(C)C)s1 | inactive | –
58 | CNc1nn(-c2cccc(Cl)c2)nc1N | inactive | –
59 | CCC(CC)c1nnc(NC(=O)c2ccco2)s1 | – | inactive: 9.71% [at 9.22 µM]
60 | CCOc1ccc(-c2nnc(NC(=O)c3ccc(OCC(C)C)c(OC)c3)o2)cc1 | inconclusive: 35.5 µM [inhibitor, single point] | –
61 | Cc1[nH]c2ccccc2c1NC(=O)CN1CCN(Cc2ccc3c(c2)OCO3)CC1 | inactive | –
62 | CN1/C(=C\C=[N+](C)c2ccccc2)C(C)(C)c2ccccc21 | active: 6.31 µM | –
63 | Fc1ccccc1COc1cccc(/C=N/n2cnnc2)c1 | inconclusive: 35.5 µM [inhibitor, single point] | –
64 | COc1ccc(C2Nc3ccccc3C(=O)N2Cc2ccccc2)cc1COc1ccccn1 (centres undefined) | inconclusive: 5.01 µM [inhibitor, single point] | –
65 | COc1ccc(-c2c(S(=O)(=O)c3ccccc3)cnn2-c2ccccc2)cc1 | inconclusive: 35.5 µM [inhibitor, single point] | –
66 | Cc1ccc(N2CCN(C(=S)Nc3ccccc3)CC2)cc1 | inactive | –
67 | Oc1cccc(C(Nc2nccs2)c2ccc3cccnc3c2O)c1 (centres undefined) | inconclusive: 5.62 µM [inhibitor, partial curve] | –
68 | COCCn1c(SCC(=O)Nc2nnc(C)s2)nnc1-c1cc2ccccc2cc1O | inactive | –
69 | COc1ccc(N2CCN(C(=S)NC(=O)c3cccs3)CC2)c([N+](=O)[O-])c1 | inconclusive: 20 µM [inhibitor, single point] | –
70 | COCc1nnc(NC(=O)c2ccc3c(c2)OCO3)s1 | inconclusive: 35.5 µM [activator, single point] | –
71 | CCc1cc(C(=O)N=Nc2c(O)[nH]c3c(Br)cc(Br)cc23)c2ccccc2n1 | inconclusive: 17.8 µM [activator, partial curve] | –
72 | O=C(Cc1cccs1)Nc1nc2c(s1)CCCC2 | active: 3.16 µM | –
73 | CC(=O)Nc1ccc(S(=O)(=O)NCCCN2CCN(Cc3ccccc3)CC2)cc1Cl | – | inactive: 4.52% [at 9.22 µM]
74 | O=c1c([N+](=O)[O-])cccn1Cc1ccc(F)cc1Cl | active: 10 µM | –
